From publication PMC4618690
Results are given in words; binding and its absence hold for the method and conditions named. For part of these data: Binding can be weak; no strength is given. Sequences can lack the tags named with a protein.

Assays:
[1] = target: LexA DBD-ETS-4 (C. elegans); test: two-hybrid; LexA DBD-ETS-4 fusions (pBTM116) with GAL4 AD-CEBP-1 (pACTII) in S. cerevisiae L40u; growth on SC-Leu-Trp-His plates with 80 mM 5-aminotriazole, 30 C, 4 days
[2] = target: LexA DBD-ETS-4(S73A) (C. elegans); test: as above
[3] = target: LexA DBD-ETS-4(S73E) (C. elegans); test: as above
[4] = target: LexA DBD-ETS-4 (C. elegans); test: two-hybrid; LexA DBD-ETS-4 fusions (pBTM116) with GAL4 AD-CEBP-1 (pACTII) in S. cerevisiae NMY51; beta-galactosidase activity in cellular extracts (Miller units), background with the control vector pACTII subtracted; ten independent experiments
[5] = target: LexA DBD-ETS-4(S73A) (C. elegans); test: as above
[6] = target: LexA DBD-ETS-4(S73E) (C. elegans); test: as above

B1: GAL4 AD-CEBP-1 (protein, UniProt Q18909 1-319)
chain: MYSKLNYSHQKGDQALKHPHLVRLQQSEVRGFTDMPNNGASTSSAGSFARQDSLTIAASLQQRDRERHPVDFMETELDLGDYLQVLHDLDVPTDNVDFDDAELQKCNILYDGEHPYEQPELNGYERHVAYGTGYRVPGDYDQDGYKMNCEVKAETPDFGATKTRRAVKRPVPYDDYQKEYSEESSDMTDNDGSVDDSYFEPKSKKTKSAGLENFKPQTRARKYKLKADEEKAEPTYKLKRARNNDAVRKSRKKAKELQDKKEAEHDKMKRRIAELEGLLQSERDARRRDQDTLEQLLRNKGPMKEQRMPQRHILENFNK
- binding [1]: binds
- binding [2]: no binding
- binding [3]: binds
- binding [4]: binds
- binding [5]: no binding
- binding [6]: binds
